The other results are listed elsewhere or left out.
Experiments:
Test in all cases: log2 fold change, soluble protein after heating vs DMSO (PISA); higher = thermal stabilisation; K562 cells, 10 uM, 30 min; active = over 0.2 and 3.5 SD of the protein, either way, in both replicates (recomputed)
[1] = compound: CC1=C(C=C(C=C1)NC(=O)C2=CC(=CC=C2)C(C)(C)C#N)NC3=CC4=C(C=C3)N=CN(C4=O)C
In short: (§1)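 Values are thermal stability changes relative to control samples and are taken from duplicates. They are stated as log2 fold changes. Before quantification by TMTpro 16plex LC-MS/MS with equalised channel sums, K562 cells at 2×10^6 cells/mL were treated with 10 μM compound for 30 min, heated in aliquots for 3 min across 48°C-58°C, pooled, extracted in PBS with 0.5% NP-40 at 4°C, and centrifuged at 21,000xg for 90 min to give the soluble supernatant.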

Sequences of proteins named here, by UniProt entry; tags and fusion partners are left off. A change or cut given only in a name is not applied to a line headed by its entry.
UniProt Q6PJG9: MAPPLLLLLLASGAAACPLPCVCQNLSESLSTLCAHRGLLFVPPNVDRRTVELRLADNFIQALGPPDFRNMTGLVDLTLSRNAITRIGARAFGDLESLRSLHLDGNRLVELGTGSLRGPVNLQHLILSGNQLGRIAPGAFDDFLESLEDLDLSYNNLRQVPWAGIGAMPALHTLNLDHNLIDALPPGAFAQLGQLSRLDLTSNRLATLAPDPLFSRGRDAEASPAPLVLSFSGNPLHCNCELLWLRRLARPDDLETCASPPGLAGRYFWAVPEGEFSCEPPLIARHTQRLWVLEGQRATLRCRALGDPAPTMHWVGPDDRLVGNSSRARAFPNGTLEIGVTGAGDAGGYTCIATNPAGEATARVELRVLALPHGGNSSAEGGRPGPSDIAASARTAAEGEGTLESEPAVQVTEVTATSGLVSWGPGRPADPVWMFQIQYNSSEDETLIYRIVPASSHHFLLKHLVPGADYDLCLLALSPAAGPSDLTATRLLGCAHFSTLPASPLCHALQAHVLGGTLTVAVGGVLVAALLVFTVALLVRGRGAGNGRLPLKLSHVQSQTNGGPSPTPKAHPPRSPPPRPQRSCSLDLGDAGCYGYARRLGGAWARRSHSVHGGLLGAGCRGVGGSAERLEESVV
UniProt Q13094: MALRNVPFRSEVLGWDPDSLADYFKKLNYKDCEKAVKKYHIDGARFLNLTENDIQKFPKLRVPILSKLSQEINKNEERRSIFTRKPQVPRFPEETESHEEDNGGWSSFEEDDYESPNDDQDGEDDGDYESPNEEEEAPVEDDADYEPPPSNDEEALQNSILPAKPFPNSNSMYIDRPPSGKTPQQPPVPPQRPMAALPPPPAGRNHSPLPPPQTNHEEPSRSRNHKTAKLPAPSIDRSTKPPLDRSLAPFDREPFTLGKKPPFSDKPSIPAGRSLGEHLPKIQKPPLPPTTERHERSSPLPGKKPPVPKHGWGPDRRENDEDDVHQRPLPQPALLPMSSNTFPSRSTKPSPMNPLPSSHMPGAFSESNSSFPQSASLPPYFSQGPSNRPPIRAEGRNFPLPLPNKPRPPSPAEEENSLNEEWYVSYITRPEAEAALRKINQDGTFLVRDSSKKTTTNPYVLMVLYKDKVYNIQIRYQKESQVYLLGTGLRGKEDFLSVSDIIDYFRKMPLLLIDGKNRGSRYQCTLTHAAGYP
UniProt O60294: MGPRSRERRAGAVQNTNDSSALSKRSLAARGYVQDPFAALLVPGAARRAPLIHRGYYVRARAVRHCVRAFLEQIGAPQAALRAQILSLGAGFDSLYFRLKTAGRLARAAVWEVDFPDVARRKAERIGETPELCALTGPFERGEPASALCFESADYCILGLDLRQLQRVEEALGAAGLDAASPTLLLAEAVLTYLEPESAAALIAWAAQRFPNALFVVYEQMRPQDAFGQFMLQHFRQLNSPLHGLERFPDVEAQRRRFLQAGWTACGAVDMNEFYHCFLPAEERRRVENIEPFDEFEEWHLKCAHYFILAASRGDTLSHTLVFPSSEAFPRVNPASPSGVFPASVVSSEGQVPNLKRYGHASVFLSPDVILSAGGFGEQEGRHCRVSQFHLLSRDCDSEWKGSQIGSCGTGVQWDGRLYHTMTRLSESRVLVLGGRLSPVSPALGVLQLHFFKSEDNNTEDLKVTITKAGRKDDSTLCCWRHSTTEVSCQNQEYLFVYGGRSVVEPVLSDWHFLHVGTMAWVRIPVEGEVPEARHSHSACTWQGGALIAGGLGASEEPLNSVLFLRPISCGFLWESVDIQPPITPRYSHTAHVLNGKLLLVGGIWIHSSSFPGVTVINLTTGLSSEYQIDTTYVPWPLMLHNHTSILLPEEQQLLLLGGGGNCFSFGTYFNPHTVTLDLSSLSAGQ
UniProt Q8IWU2: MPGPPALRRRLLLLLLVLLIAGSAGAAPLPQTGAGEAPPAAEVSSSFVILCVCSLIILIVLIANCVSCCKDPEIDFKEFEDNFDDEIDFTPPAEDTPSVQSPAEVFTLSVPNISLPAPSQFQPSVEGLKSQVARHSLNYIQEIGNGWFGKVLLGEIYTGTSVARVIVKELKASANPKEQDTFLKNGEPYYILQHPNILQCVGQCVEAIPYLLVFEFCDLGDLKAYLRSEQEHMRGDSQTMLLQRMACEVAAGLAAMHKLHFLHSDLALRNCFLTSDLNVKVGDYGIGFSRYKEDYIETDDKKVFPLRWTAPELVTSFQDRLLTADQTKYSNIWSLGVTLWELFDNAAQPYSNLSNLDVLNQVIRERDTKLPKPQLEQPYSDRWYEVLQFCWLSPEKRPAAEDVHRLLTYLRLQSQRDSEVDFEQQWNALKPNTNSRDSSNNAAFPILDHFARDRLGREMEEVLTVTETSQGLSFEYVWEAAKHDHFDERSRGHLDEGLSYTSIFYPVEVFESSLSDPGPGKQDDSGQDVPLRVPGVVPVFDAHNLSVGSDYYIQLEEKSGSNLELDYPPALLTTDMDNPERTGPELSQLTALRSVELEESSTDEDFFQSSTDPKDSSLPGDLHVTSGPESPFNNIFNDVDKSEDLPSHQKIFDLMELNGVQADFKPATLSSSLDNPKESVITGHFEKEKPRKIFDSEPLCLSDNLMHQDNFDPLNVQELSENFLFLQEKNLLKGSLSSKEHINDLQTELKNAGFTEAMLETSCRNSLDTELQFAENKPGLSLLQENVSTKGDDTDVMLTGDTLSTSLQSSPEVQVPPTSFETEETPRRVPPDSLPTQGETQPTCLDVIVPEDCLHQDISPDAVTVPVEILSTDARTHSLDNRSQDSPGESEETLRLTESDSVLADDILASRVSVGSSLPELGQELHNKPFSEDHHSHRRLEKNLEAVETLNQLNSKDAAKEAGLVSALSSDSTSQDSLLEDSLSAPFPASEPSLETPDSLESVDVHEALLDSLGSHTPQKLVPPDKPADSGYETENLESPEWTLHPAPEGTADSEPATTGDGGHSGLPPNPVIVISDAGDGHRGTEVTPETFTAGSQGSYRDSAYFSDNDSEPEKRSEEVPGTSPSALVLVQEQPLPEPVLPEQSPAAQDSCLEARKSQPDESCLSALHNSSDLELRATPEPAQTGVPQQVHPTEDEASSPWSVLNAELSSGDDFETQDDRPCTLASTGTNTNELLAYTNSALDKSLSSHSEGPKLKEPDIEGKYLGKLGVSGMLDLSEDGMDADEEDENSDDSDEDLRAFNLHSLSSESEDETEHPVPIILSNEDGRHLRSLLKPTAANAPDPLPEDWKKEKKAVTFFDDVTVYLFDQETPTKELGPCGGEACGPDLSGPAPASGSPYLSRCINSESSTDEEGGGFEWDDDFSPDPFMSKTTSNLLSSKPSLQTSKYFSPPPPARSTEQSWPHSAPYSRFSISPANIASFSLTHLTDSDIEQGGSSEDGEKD
UniProt Q14739: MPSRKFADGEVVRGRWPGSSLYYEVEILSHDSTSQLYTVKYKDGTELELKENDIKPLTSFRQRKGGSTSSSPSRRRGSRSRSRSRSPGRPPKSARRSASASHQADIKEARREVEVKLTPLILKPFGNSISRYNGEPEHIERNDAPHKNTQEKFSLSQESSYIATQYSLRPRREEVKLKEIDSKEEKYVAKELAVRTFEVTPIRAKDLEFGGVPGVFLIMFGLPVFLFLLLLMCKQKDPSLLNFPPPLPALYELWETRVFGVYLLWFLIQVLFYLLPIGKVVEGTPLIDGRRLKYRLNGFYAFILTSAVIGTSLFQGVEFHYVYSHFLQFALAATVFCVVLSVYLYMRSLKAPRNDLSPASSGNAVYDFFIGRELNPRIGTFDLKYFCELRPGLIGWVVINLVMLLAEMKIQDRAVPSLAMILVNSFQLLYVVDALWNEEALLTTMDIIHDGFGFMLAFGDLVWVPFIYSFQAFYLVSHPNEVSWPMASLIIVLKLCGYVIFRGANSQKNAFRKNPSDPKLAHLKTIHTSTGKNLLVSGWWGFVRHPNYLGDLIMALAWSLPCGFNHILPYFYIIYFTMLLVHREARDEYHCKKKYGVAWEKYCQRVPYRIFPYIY
UniProt Q8WVP7: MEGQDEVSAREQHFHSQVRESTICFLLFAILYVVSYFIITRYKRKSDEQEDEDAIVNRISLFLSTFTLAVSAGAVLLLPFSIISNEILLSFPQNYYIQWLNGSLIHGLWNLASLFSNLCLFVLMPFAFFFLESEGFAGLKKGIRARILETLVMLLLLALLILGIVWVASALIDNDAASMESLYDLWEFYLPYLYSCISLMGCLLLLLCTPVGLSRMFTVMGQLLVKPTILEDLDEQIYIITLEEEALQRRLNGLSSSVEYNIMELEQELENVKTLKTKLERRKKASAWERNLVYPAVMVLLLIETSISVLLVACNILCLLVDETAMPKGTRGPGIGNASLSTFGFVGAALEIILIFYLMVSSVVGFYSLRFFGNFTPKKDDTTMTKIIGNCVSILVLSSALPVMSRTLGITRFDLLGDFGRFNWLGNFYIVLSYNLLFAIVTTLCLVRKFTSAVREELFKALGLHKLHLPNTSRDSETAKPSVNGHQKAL
UniProt Q9Y4W2: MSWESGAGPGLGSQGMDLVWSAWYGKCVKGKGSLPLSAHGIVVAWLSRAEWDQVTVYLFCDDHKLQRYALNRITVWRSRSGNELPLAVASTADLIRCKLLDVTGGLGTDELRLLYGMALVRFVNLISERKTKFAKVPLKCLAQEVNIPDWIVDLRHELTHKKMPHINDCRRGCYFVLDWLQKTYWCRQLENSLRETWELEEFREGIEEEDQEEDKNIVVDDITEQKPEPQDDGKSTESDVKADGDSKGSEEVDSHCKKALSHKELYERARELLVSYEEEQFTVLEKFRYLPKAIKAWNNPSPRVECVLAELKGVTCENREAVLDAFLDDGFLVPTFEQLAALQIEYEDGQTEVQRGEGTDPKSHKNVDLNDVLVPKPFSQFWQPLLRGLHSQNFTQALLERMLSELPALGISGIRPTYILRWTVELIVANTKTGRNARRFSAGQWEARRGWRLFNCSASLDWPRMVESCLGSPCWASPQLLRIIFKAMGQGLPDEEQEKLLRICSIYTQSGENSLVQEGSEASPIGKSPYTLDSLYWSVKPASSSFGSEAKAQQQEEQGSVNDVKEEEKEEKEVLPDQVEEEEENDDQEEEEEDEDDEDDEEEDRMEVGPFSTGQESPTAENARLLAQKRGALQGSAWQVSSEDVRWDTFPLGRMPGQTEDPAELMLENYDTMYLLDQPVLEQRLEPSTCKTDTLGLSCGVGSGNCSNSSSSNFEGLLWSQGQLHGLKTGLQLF

[2] = compound: CC1=C(C=C(C=C1)NC(=O)C2=CC(=CC=C2)N(C)C)NC(=O)C3=CC=C(C=C3)O
In short: as §1

[3] = compound: CC1=CC=C(C=C1)SC2=C3C=C(SC3=CN=C2)C(=O)N
In short: as §1

[4] = compound: CC1=NC(=CC=C1)C2=C(N=C(N2)C(C)(C)C)C3=CC4=NC=CN=C4C=C3
In short: as §1

Nexturastat A = compound: CCCCN(Cc1ccc(C(=O)NO)cc1)C(=O)Nc1ccccc1 [Nexturastat A]
In short: as §1

[5] = compound: CCCS(=O)(=O)Nc1ccc(F)c(C(=O)c2c[nH]c3ncc(Cl)cc23)c1F
In short: as §1

[6] = compound: CCCc1cc(C)[nH]c(=O)c1CNC(=O)c1cc(-c2ccnc(N3CCN(C)CC3)c2)cc2c1cnn2C(C)C
In short: as §1

givinostat = compound: CCN(CC)Cc1ccc2cc(COC(=O)Nc3ccc(C(=O)NO)cc3)ccc2c1 [givinostat]
In short: as §1

barasertib = compound: CCN(CCCOc1ccc2c(Nc3cc(CC(=O)Nc4cccc(F)c4)[nH]n3)ncnc2c1)CCOP(=O)(O)O [barasertib]
In short: as §1

volasertib = compound: CC[C@@H]1C(=O)N(C)c2cnc(Nc3ccc(C(=O)N[C@H]4CC[C@H](N5CCN(CC6CC6)CC5)CC4)cc3OC)nc2N1C(C)C [volasertib]
In short: as §1

epoxomicin = compound: CC[C@H](C)[C@@H](C(=O)N[C@@H]([C@@H](C)O)C(=O)N[C@@H](CC(C)C)C(=O)[C@]1(CO1)C)NC(=O)[C@H]([C@@H](C)CC)N(C)C(=O)C [epoxomicin]
In short: as §1

[7] = compound: CCn1c(C(=O)N(C2CC2)C2CC2)cc2c3c(ncn3C)c(Nc3cc(C)n(C)n3)nc21
In short: as §1

[8] = compound: CCn1cc(-c2ccnc3[nH]c(-c4cccc(CN(C)C)c4)cc23)c(-c2ccc(NC(=O)N(C)C)cc2)n1
In short: as §1

rosiglitazone = compound: CN(CCOC1=CC=C(C=C1)C[C@H]2C(=O)NC(=O)S2)C3=CC=CC=N3 (racemic) [rosiglitazone]
In short: as §1

[9] = compound: CN1C2=C(C3=C1C(=O)N(N=C3)CC4=CC(=CC=C4)N)SC(=C2)S(=O)C
In short: as §1

[10] = compound: CN1CCC(CNc2ccc3ncc(-c4cccc(OC(F)(F)F)c4)n3n2)CC1
In short: as §1

vemurafenib = compound: CCCS(=O)(=O)Nc1ccc(F)c(C(=O)c2c[nH]c3ncc(-c4ccc(Cl)cc4)cc23)c1F [vemurafenib]
In short: as §1

[11] = compound: CC[C@@H]1C(=O)N(C)c2cnc(Nc3ccc(C(=O)NC4CCN(C)CC4)cc3OC)nc2N1C1CCCC1
In short: as §1

[12] = compound: CN(C)CC(=O)Nc1ccc2[nH]c(=O)c3ccccc3c2c1
In short: as §1

[13] = compound: CC[C@H](C)N1C=C(C2=C(C=C(C=C21)C3=CN=C(C=C3)N4CCNCC4)C(=O)NCC5=C(C=C(NC5=O)C)C)C
In short: as §1

Measured: log2 fold change

LRFN4 (UniProt Q6PJG9)
inactive: [1] -0.008 | [2] -0.016 | [3] 0.023 | [4] 0.003 | Nexturastat A -0.09 | [5] 0.002 | [6] -0.081 | givinostat 0.061 | barasertib 0.087 | volasertib -0.103 | epoxomicin 0.034 | [7] 0.123 | [8] 0.003 | rosiglitazone -0.091 | [9] -0.075 | [10] 0.176

LCP2 (UniProt Q13094)
inactive: [1] 0 | [2] -0.001 | [4] 0.045 | Nexturastat A 0.062 | vemurafenib 0.034 | givinostat -0.013 | barasertib 0.066 | [11] -0.119 | epoxomicin 0.114 | [7] -0.066 | [8] 0.031 | [12] 0.038 | rosiglitazone -0.008 | [9] -0.075 | [10] -0.198

LCMT2 (UniProt O60294)
inactive: [1] 0.071 | [3] 0.248 | [4] 0.096 | Nexturastat A 0.293 | vemurafenib 0.213 | [5] 0.269 | [6] -0.011 | givinostat 0.005 | barasertib 0.068 | [11] 0.149 | volasertib -0.228 | [13] 0.014 | epoxomicin -0.131 | [7] -0.115 | [8] 0 | [12] -0.069 | rosiglitazone -0.006 | [9] 0.03 | [10] -0.069

LMTK2 (UniProt Q8IWU2)
inactive: [1] 0.058 | [2] -0.03 | [3] -0.078 | [4] -0.036 | Nexturastat A 0.189 | vemurafenib -0.053 | [5] -0.249 | [6] -0.031 | givinostat 0.075 | barasertib -0.028 | volasertib 0.05 | epoxomicin 0.052 | [7] 0.086 | [8] -0.07 | [12] -0.071 | rosiglitazone 0.037 | [9] 0.147 | [10] -0.133

LBR (UniProt Q14739)
active: volasertib 0.552
inactive: [1] 0.045 | [2] -0.035 | [3] -0.002 | [4] 0.045 | Nexturastat A -0.108 | vemurafenib 0.063 | [5] 0.05 | [6] -0.009 | givinostat 0.125 | barasertib 0.024 | [11] -0.036 | [13] 0.051 | epoxomicin 0.022 | [8] -0.071 | [12] 0.056 | [9] -0.026 | [10] 0.099

LMBR1 isoform 3 (UniProt Q8WVP7)
inactive: [1] -0.156 | [2] 0.17 | [3] 0.128 | [4] 0.036 | Nexturastat A 0.134 | vemurafenib 0.049 | [5] 0.175 | [6] -0.086 | givinostat 0 | barasertib -0.007 | volasertib -0.452 | epoxomicin 0.26 | [8] -0.456 | [12] 0.049 | [9] 0.033 | [10] -0.314

LAS1L (UniProt Q9Y4W2)
inactive: [1] -0.285 | [2] 0.035 | [3] 0.07 | [4] 0.208 | Nexturastat A 0.323 | vemurafenib -0.012 | [5] 0.128 | barasertib -0.078 | volasertib -0.018 | epoxomicin -0.065 | [8] -0.002 | [12] -0.056 | rosiglitazone 0.09 | [9] 0.378 | [10] 0.004
